According to US20240376166A1:
No constants are given. Whether binding was seen depends on the method and setting. Binding seen in cells or lysates may run through a third protein. Some results given as binding are weak or reduced against the parent protein; the word gives no strength.

The chains behind the UniProt entries cited, without tags or fusion partners. Where a name states a change or a piece, a line headed by the entry shows the natural chain unless it says otherwise.
UniProt Q07813: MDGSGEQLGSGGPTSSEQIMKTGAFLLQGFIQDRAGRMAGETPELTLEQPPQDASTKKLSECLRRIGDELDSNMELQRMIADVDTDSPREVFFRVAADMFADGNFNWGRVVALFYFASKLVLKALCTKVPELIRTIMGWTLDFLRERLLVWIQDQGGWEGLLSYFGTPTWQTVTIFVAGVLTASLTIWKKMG
UniProt P06748: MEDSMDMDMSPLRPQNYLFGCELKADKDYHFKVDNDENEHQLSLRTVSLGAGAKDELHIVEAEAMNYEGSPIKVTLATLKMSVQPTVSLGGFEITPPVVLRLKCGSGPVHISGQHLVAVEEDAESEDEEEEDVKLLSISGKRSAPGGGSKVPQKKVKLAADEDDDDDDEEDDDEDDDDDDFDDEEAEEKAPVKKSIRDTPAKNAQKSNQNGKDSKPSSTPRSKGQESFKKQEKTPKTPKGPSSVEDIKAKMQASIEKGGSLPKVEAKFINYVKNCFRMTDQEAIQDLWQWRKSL

Tests used:
[1] = target: endogenous murine Bax, conformationally active (6A7 epitope exposed) (mouse) (UniProt Q07813); test: co-IP: flag IP of NPM, immunoblot for active Bax (6A7), after ATP depletion; FIG. 5C
[2] = target: endogenous murine Bax, conformationally active (6A7 epitope exposed) (mouse) (UniProt Q07813); test: co-IP in primary murine PTEC during ATP depletion; FIG. 5C
[3] = target: endogenous murine Bax, conformationally active (6A7 epitope exposed) (mouse) (UniProt Q07813); test: refers back to the co-IP result
[4] = target: endogenous murine Bax, conformationally active (6A7 epitope exposed) (mouse) (UniProt Q07813); test: co-IP: flag IP of NPM, immunoblot for active Bax (6A7); FIG. 5C
[5] = target: endogenous murine Bax, conformationally active (6A7 epitope exposed) (mouse) (UniProt Q07813); test: co-IP: flag IP of NPM, immunoblot for active Bax (6A7), after ischemic stress; wild-type is the reference lane; FIG. 5C

Row | binding [1] | binding [2] | binding [3] | binding [4] | binding [5] | Substance
1 | binds | binds | binds | binds | – | flag-tagged NPM stress mimic (T86E-S88E-T95E-T234A-S242A) (from UniProt P06748 1-294)
2 | – | – | – | – | binds | flag-tagged wild-type human nucleophosmin (NPM) (from UniProt P06748 1-294)
